Assay results as given in patent US20150272939A1, “Identification of Small Molecule Inhibitors of Jumonji AT-Rich Interactive Domain 1A (JARID1A) and 1B (JARID1B) Histone Demethylase” (Yale University, priority 2012, published 2015).
Where a name gives a salt, the structure may show the parent alone.

The chains behind the UniProt entries cited, without tags or fusion partners. Where a name states a change or a piece, a line headed by the entry shows the natural chain unless it says otherwise.
UniProt Q9UGL1: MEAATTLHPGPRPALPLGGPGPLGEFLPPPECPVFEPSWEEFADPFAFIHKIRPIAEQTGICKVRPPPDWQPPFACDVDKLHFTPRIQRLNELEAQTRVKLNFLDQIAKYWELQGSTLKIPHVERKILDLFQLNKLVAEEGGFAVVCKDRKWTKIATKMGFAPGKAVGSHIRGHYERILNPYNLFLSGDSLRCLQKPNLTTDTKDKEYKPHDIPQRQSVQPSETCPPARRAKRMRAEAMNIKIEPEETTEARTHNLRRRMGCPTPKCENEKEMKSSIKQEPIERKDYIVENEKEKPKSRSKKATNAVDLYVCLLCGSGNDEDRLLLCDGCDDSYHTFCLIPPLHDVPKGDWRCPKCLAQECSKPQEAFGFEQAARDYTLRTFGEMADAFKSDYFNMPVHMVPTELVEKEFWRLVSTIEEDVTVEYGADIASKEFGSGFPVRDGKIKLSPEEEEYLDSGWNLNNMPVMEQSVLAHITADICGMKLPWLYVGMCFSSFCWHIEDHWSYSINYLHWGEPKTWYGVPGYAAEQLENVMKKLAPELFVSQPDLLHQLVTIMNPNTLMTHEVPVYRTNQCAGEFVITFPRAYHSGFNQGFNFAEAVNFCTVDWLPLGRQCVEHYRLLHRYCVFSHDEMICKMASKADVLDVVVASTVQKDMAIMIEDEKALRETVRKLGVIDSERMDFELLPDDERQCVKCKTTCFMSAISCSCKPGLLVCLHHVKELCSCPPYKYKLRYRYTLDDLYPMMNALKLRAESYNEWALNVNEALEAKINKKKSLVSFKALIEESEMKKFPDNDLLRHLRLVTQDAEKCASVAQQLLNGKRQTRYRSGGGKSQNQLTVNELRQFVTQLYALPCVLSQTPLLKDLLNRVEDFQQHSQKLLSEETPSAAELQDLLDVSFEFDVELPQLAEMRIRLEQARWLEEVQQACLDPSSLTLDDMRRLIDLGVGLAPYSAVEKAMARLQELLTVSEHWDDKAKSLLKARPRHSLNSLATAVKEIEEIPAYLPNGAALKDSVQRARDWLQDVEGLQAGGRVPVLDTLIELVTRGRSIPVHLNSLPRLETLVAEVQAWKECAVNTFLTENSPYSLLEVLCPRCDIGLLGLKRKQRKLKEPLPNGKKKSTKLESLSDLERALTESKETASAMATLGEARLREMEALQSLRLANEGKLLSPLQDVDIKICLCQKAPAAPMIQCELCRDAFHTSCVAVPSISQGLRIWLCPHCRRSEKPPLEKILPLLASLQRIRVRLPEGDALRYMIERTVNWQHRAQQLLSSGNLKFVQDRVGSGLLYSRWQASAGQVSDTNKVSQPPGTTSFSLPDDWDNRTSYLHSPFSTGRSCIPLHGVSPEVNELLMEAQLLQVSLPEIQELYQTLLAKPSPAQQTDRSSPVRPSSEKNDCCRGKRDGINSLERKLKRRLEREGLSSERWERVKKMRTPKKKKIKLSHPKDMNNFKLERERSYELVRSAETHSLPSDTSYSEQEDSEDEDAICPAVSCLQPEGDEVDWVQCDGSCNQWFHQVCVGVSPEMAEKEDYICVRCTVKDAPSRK

Target: T1, JARID1B (Homo sapiens, UniProt Q9UGL1)
T1 construct: The FLAG tagged full length JARID1B enzyme was expressed in Sf21 insect cells using FLAG-JARID1B baculoviruses; FLAG (N); made in house; host or cells: Sf21 insect cells (baculovirus)
Assay: FLAG-JARID1B histone demethylase assay with AlphaScreen detection (HTS and dose response);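 note: FLAG-tagged JARID1B at 4 nM acting on a biotinylated H3K4me3 peptide, demethylation read by AlphaScreen luminescence, with hits checked against bio-H3K4me2 without enzyme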;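 for Assay Signal (percent): compound tested at 20 µM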;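 for Assay − Artifact Signal (percent): compound tested at 20 µM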
Type: biochemical

Cc1ccccc1C(OCCN(C)C)c1ccccc1 (stereo not drawn) [YU033938, ORPHENADRINE CITRATE, reference compound]
Assay − Artifact Signal (percent) (assay signal minus artifact signal): 56.56%
inhibition at 20 µM (high-throughput screen, compound 20 μM, standard demethylase conditions (10 μM α-KG, 50 μM Fe (II)), read-out: Inhibitory effect (percent)): 47.9%
Assay Signal (percent) (validation of HTS actives, effect of compound in JARID1B AlphaScreen assay): 66.35%
